Measured values as given in paper PMC11362597.
These are yes or no findings as the source states them, for the method shown. Binding seen in cells or lysates may run through a third protein. Some entries that bind do so weakly or less than the wild type.

The chains behind the UniProt entries cited, without tags or fusion partners.
UniProt P42331: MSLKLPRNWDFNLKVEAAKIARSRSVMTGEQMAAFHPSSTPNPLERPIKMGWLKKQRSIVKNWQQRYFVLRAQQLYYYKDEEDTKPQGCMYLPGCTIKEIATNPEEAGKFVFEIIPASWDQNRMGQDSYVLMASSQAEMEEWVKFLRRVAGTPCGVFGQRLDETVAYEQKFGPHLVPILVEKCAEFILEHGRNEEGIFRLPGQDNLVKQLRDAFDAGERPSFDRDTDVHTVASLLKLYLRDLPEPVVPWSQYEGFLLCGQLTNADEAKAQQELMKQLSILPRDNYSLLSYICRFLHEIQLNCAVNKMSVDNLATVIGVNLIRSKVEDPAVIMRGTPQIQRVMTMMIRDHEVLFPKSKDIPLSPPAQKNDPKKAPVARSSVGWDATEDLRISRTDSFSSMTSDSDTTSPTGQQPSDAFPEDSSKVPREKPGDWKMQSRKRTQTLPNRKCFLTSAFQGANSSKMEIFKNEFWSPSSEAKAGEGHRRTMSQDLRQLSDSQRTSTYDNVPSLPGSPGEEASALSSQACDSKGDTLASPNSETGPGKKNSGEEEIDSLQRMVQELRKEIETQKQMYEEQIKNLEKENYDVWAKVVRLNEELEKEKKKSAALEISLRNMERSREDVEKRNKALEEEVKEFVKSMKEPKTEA

Biological target: GST-fused recombinant ARHGAP25 (human) (UniProt P42331)
Assay: pull-down; eluates of the GST-ARHGAP25 and GST pull-downs from intact neutrophil lysate, immunoblotted; only the target purified

B1: ACSL1 (protein, UniProt P33121 1-698)
chain: MQAHELFRYFRMPELVDFRQYVRTLPTNTLMGFGAFAALTTFWYATRPKPLKPPCDLSMQSVEVAGSGGARRSALLDSDEPLVYFYDDVTTLYEGFQRGIQVSNNGPCLGSRKPDQPYEWLSYKQVAELSECIGSALIQKGFKTAPDQFIGIFAQNRPEWVIIEQGCFAYSMVIVPLYDTLGNEAITYIVNKAELSLVFVDKPEKAKLLLEGVENKLIPGLKIIVVMDAYGSELVERGQRCGVEVTSMKAMEDLGRANRRKPKPPAPEDLAVICFTSGTTGNPKGAMVTHRNIVSDCSAFVKATENTVNPCPDDTLISFLPLAHMFERVVECVMLCHGAKIGFFQGDIRLLMDDLKVLQPTVFPVVPRLLNRMFDRIFGQANTTLKRWLLDFASKRKEAELRSGIIRNNSLWDRLIFHKVQSSLGGRVRLMVTGAAPVSATVLTFLRAALGCQFYEGYGQTECTAGCCLTMPGDWTAGHVGAPMPCNLIKLVDVEEMNYMAAEGEGEVCVKGPNVFQGYLKDPAKTAEALDKDGWLHTGDIGKWLPNGTLKIIDRKKHIFKLAQGEYIAPEKIENIYMRSEPVAQVFVHGESLQAFLIAIVVPDVETLCSWAQKRGFEGSFEELCRNKDVKKAILEDMVRLGKDSGLKPFEQVKGITLHPELFSIDNGLLTPTMKAKRPELRNYFRSQIDDLYSTIKV
In the case of B1, the binding is reported as “binds”.
